Laboratory results reported in patent US20130122024A1 (Bayer Intellectual Property GmbH, priority 2011, published 2013).

Assay: general procedure: solution-phase peptide synthesis; HATU/N,N-diisopropylethylamine; EDC hydrochloride/HOBt hydrate/N,N-diisopropylet
Conditions: trifluoroacetate
[1] = late stage modification step, over 2 stages

N-[(9H-fluoren-9-ylmethoxy)carbonyl]-N-methyl-L-valyl-N-[(3R,4S,5S)-3-methoxy-1-{(2S)-2-[(1R,2R)-1-methoxy-2-methyl-3-{[(1S,2R)-1-(1,2-oxazinan-2-ylcarbonyl)-2-phenylcyclopropyl]amino}-3-oxopropyl]pyrrolidin-1-yl}-5-methyl-1-oxoheptan-4-yl]-N-methyl-L-valinamide
step yield (coupling step): 59% of theory

N-(tert-butoxycarbonyl)-N-methyl-L-valyl-N-[(3R,4S,5S)-1-{(2S)-2-[(1R,2R)-3-(benzyloxy)-1-methoxy-2-methyl-3-oxopropyl]pyrrolidin-1-yl}-3-methoxy-5-methyl-1-oxoheptan-4-yl]-N-methyl-L-valinamide
step yield (coupling step): 55% of theory

N-(6-{[(5S)-5-Amino-5-carboxypentyl]amino}-6-oxohexyl)-N-methyl-L-threonyl-N-[(3R,4S,5S)-1-{(2S)-2-[(1R,2R)-3-{[(2S)-3-(1H-indol-3-yl)-1-(1,2-oxazinan-2-yl)-1-oxopropan-2-yl]amino}-1-methoxy-2-methyl-3-oxopropyl]pyrrolidin-1-yl}-3-methoxy-5-methyl-1-oxoheptan-4-yl]-N-methyl-L-valinamide trifluoroacetate
step yield (late stage modification step): 47% of theory

N-(6-aminohexyl)-N-methyl-L-valyl-N-[(3R,4S,5S)-1-{(2S)-2-[(1R,2R)-3-{[(1S,2R)-1-(1,4-dihydro-3H-2,3-benzoxazin-3-ylcarbonyl)-2-phenylcyclopropyl]amino}-1-methoxy-2-methyl-3-oxopropyl]pyrrolidin-1-yl}-3-methoxy-5-methyl-1-oxoheptan-4-yl]-N-methyl-L-valinamide
step yield [1]: 23% of theory over 2 stages

N-(6-aminohexyl)-N-methyl-L-valyl-N-[(3R,4S,5S)-3-methoxy-1-{(2S)-2-[(1R,2R)-1-methoxy-2-methyl-3-{[(2S,3S)-1-(1,2-oxazinan-2-yl)-1-oxo-3-phenylbutan-2-yl]amino}-3-oxopropyl]pyrrolidin-1-yl}-5-methyl-1-oxoheptan-4-yl]-N-methyl-L-valinamide
step yield [1]: 63% of theory over 2 stages

N-(6-{[(5S)-5-Amino-5-carboxypentyl]amino}-6-oxohexyl)-N-methyl-L-valyl-N-[(3R,4S,5S)-1-{(2S)-2-[(1R,2R)-3-{[(2S)-3-(1H-indol-3-yl)-1-(1,2-oxazinan-2-yl)-1-oxopropan-2-yl]amino}-1-methoxy-2-methyl-3-oxopropyl]pyrrolidin-1-yl}-3-methoxy-5-methyl-1-oxoheptan-4-yl]-N-methyl-L-valinamide trifluoroacetate
step yield (late stage modification step): 97% of theory

N-(4-{2-[6-(3-{[(2R)-2-Amino-2-carboxyethyl]sulphanyl}-2,5-dioxopyrrolidin-1-yl)hexanoyl]hydrazino}-4-oxobutyl)-N-methyl-L-valyl-N-[(3R,4S,5S)-1-{(2S)-2-[(1R,2R)-3-{[(2S)-1-amino-3-(1H-indol-3-yl)-1-oxopropan-2-yl]amino}-1-methoxy-2-methyl-3-oxopropyl]pyrrolidin-1-yl}-3-methoxy-5-methyl-1-oxoheptan-4-yl]-N-methyl-L-valinamide
step yield (late stage modification step): 48% of theory
